Measurements published in patent US6602487B1, “Methods and tests for producing and for inhibiting coronary artery vasospasms” (Dimera Incorporated, priority 1997, dated 2003).
At least one structure is not confirmed: it was looked up by name or label, or the drawing left a doubt.

Key:
coronary arteries [1] = details: 6.7 nmol/liter ACh IC; three females, one male
coronary arteries [2] = experiment: Relief of coronary vasospasm by intracoronary Ca2+ antagonist; assay type: in vivo, rhesus monkeys (Macaca mulatta); details: IC injection, nitrendipine 1 to 10 μmol/liter, mibefradil 0.1 to 10 μmol/liter, not allowing for dilution
Description: The eighth to tenth steps, which were 1 ml injections of 100 μmol/liter serotonin and 1 μmol/liter U46619 combined, were the critical steps. These concentrations of serotonin and U46619, injected in three repeated challenges, provoked drug-induced vasospasm. Sensitivity was determined by whether the vasospasm response occurred to the first, second or third stimulus, allowing at least a 7-minute delay from one injection to the next. For three of these seven ovx monkeys, 1-2 nM endothelin-1 (alone and plus serotonin) and 1 μmol/liter angiotensin-II (alone and plus serotonin) steps were administered between steps 10 and 11 (as additional challenges), but these extra steps never produced vasospasm. […] Step 12 was a Ca^2+ antagonist, either nitrendipine or mibefradil, as a vasodilator to relieve the vasospasm or cardiogenic shock that was the end point.
10. IC injection 15 minutes later with 1 or 10 μmol/liter nitrendipine or Ro 40-5967 (mibefradil);
12. IC injection 15 minutes later with 1 or 10 μmol/liter nitrendipine or Ro 40-5967.
To allow monkeys to recover and prevent death due to cardiogenic shock, we followed combined serotonin and U46619 stimulation with an IC Ca^2+ antagonist, either nitrendipine or mibefradil, at the end of the 15 minute vasospasm, except for that in FIG. 2. […]

| Structure (SMILES) | vasodilation (test of endothelial integrity) (coronary arteries [1]) | relief of coronary vasospasm (coronary arteries [2]) | relief of coronary vasospasm (coronary arteries [2]; listed as Nitrendipine) |
| --- | --- | --- | --- |
| CC(=O)OCC[N+](C)(C)C [ACh, acetylcholine] | sufficient in sensitive arteries | – | – |
| CCOC(=O)C1=C(C)NC(C)=C(C(=O)OC)C1c1cccc([N+](=O)[O-])c1 (stereo not drawn) [nitrendipine] | – | Vasospasm was relieved | effective in eliminating |
